Assay results published in PubChem BioAssay AID1671190 (National Center for Advancing Translational Sciences (NCATS), 2021).
“And” between values parts separate entries of the source, which are not always exact repeats. Identical values can stand only once. In all, about 580,000 compounds went through this assay and about 6,100 (1.1%) were called active. This list was built around the results that the source calls inconclusive (neither active nor inactive); the mix of calls is not that of the screen. Calls come from the whole dose curve; as a rule, active = well fitted inhibition curve with a large enough effect; inconclusive = small, poorly fitted or top-dose-only effect, or another doubt; inactive = no such curve, though single readings can be large or run the other way. Potencies beside an inconclusive call are fits to weak or partial responses and may not hold up. Peptide text beside a SMILES is read from it. * marks the point of attachment. Cbz = O=C(OCc1ccccc1)*
% is set by controls: 0 for no effect and ±100 for the full control effect; potency is the fitted concentration of half-maximal effect.

The chains behind the UniProt entries cited, without tags or fusion partners. Where a name states a change or a piece, a line headed by the entry shows the natural chain unless it says otherwise.
UniProt P18054: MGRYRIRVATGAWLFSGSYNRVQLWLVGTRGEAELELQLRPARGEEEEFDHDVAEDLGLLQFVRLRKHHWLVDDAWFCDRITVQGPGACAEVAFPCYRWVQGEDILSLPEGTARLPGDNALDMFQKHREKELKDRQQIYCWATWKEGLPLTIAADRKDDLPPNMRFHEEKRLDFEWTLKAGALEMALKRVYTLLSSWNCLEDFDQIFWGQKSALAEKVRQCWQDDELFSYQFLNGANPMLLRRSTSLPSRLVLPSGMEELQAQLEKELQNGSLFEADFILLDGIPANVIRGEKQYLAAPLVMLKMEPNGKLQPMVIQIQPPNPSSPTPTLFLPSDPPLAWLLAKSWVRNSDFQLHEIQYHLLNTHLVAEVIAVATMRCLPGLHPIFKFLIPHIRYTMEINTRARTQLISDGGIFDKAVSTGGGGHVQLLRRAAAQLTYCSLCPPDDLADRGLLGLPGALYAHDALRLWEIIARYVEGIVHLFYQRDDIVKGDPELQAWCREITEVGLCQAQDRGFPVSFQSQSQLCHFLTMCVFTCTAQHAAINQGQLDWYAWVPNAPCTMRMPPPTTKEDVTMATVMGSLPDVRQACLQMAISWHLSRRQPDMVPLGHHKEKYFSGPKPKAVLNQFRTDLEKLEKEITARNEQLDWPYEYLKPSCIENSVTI

Each compound was assayed against Polyunsaturated fatty acid lipoxygenase ALOX12 (Homo sapiens) (UniProt P18054) (assay: Primary qHTS assay for inhibitors of human arachidonate 12S-lipoxygenase (ALOX12): Round 2). Settings: purified 12hLO, xylenol orange hydroperoxide absorbance; activity change, negative = inhibition: at 108 µM (top of the series) unless noted.
Outline: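 Purified human 12hLO at 150 nM in 25 mM Hepes, 0.01% Triton X-100, pH 7.0, preincubated 15 min at room temperature with compound. Reaction started with 40 uM arachidonic acid, 30 min at room temperature. Hydroperoxide measured by Fe-xylenol orange, 573/405 nm absorbance ratio.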
`CCN(CC)C1CC(=O)N(c2cccc(Cl)c2)C1=O` (centres undefined) was tested, and the Potency was inconclusive: 6.31 µM [inhibitor, full curve, poor fit].
With `CCOC(=O)c1c(NC(=O)c2c(-c3ccccc3)noc2C)sc(C)c1-c1ccccc1` the Potency was “inactive”.
`N#CCC(=O)c1ccccc1Oc1ccc(Cl)cc1` was tested, and the Potency was inconclusive: 50.1 µM [inhibitor, partial curve, poor fit].
In the case of `CCOc1cc(C(=O)Nc2ccc(S(=O)(=O)Nc3cc(OC)nc(OC)n3)cc2)cc(OCC)c1OCC`, the Potency is reported as “inactive”.
With `O=C(Nc1cc(C(F)(F)F)cc(C(F)(F)F)c1)c1ccc(Cn2cc(C(F)(F)F)ccc2=O)cc1` the Potency was “inactive”.
`CCN1C2=C(C(=O)CCC2)C(c2ccc(O)cc2)C2=C1CCCC2=O` was tested, and the Potency was inconclusive: 3.55 µM [inhibitor, full curve, poor fit].
`CCCCn1c(SCC(=O)NCc2ccccc2)nc2ccc(N3CCOCC3)cc2c1=O` was tested, and the Potency was inconclusive: 39.8 µM [inhibitor, partial curve, poor fit].
For `OCc1cccc(-c2ccc3ncc(Nc4cccc(F)c4)n3n2)c1`, the Potency was inconclusive: 112 µM [inhibitor, partial curve].
`COCc1cc(CNC(=O)c2ccc(C3CCNC3)cc2)[nH]n1` (centres undefined) was tested, and the Potency was inconclusive: 8.91 µM [inhibitor, full curve].
With `C[C@H]1[C@@H]2[C@@H](O)[C@H]([C@H](C)C(=O)N3CCCC3)CC[C@@]2(C)CC[C@@H]1NC(=O)c1cccc(F)c1` the Potency was “inactive”.
For `Cc1ccc(C(=O)NC(=S)Nc2ccc(N3CCOCC3)cc2)c(C)c1`, the Potency was active: 7.94 µM.
With `CC(=O)N1C[C@@H](CO)[C@@H](N(C)C(=O)C(C)(C)C)C[C@H]1c1ccccc1` the Potency was inconclusive: 126 µM [inhibitor, single point].
In the case of `COc1ccc(CCC(=O)NCCC2CCN(C(=O)Nc3cc(F)cc(F)c3)CC2)cc1`, the Potency is reported as “inactive”.
In the case of `CC(=O)c1c(C)[nH]c(C(=O)CSc2nc3ccc(C)cc3[nH]2)c1C`, the Potency is reported as inconclusive: 35.5 µM [inhibitor, partial curve, poor fit].
With `COC(=O)c1ccc2nc(C3CCCCC3)c(Cc3ccccc3)n2c1` the Potency was inconclusive: 44.7 µM [inhibitor, partial curve, poor fit].
In the case of `Cc1[nH]c2ccccc2c1C(C(=O)O)N1CCN(Cc2cccc3ccccc23)CC1` (centres undefined), the Potency is reported as inconclusive: 31.6 µM [inhibitor, partial curve, poor fit].
For `C/C(=N/NS(=O)(=O)c1ccc(Br)cc1)c1cccc(NC(=O)C2CC2)c1`, the Potency was inconclusive: 39.8 µM [inhibitor, partial curve, poor fit].
For `NC(=O)CNC(=O)[C@@H]1CC2(CC(c3cccc(Br)c3)=NO2)CN1C(=O)c1ccc(Br)cc1` (some centres undefined), the Potency was inconclusive: 3.98 µM [inhibitor, full curve, poor fit].
With `CC(NC(=O)C(C)NC(=O)CNC(=O)OCc1ccccc1)C(=O)O` (stereo not drawn) (Cbz-Gly-Ala-Ala-OH; configuration not given here) the Potency was inconclusive: 0.398 µM [inhibitor, full curve, poor fit].
With `Cc1ccc(NC(=O)CCNS(=O)(=O)c2ccc(Br)cc2)cc1S(=O)(=O)N1CCOCC1` the Potency was inconclusive: 50.1 µM [inhibitor, partial curve, poor fit].
For `Cc1ccc(C(=O)N/C(=C/C=C/c2ccccc2)C(=O)NCc2ccco2)cc1`, the Potency was inconclusive: 2.24 µM [inhibitor, partial curve, poor fit].
`Clc1ccccc1N=C1NN=C(c2cccs2)CS1` was tested, and the Potency was “inactive”.
With `O=C(COC(=O)c1ccc[nH]c1=O)NCC12CC3CC(CC(C3)C1)C2` the Potency was inconclusive: 44.7 µM [inhibitor, partial curve, poor fit].
In the case of `Cc1ccc(C2C3=C(CCCC3=O)Nc3[nH]c(=S)[nH]c(=O)c32)cc1` (centres undefined), the Potency is reported as inconclusive: 1.58 µM [inhibitor, full curve].
`O=C1C2C3c4ccccc4C(Br)(c4ccccc43)C2C(=O)N1c1ccccc1O` (centres undefined) was tested, and the Potency was “inactive”.
For `Clc1ccc(-c2csc(NC3CC3)n2)cc1`, the Potency was active: 8.91 µM.
For `O=C(C1CCCN(Cc2ccccc2F)C1)N1CCCC1` (centres undefined), the Potency was inconclusive: 0.891 µM [inhibitor, full curve].
In the case of `CO[C@H]1[C@H](NC(=O)c2ccsc2)c2ccccc2C12CCN(Cc1cc3ccccc3o1)CC2`, the Potency is reported as inconclusive: 100 µM [inhibitor, single point].
In the case of `COc1ccc(CN(Cc2cccnc2)S(=O)(=O)c2ccc(-n3cnnn3)c(C)c2)cc1OC`, the Potency is reported as inconclusive: 15.8 µM [inhibitor, full curve, poor fit].
With `CCOc1ccc(Oc2ccc(NC(=O)c3nn(C)c(=O)c4ccccc34)cc2)cc1` the Potency was inconclusive: 44.7 µM [inhibitor, partial curve, poor fit].
With `COc1ccc(CCNC(=O)CC2Sc3ccccc3NC2=O)cc1OC` (centres undefined) the Potency was “inactive”.
In the case of `CCOc1ccc(-n2c(N)c(C(=O)NCc3cccnc3)sc2=S)cc1`, the Potency is reported as inconclusive: 50.1 µM [inhibitor, partial curve, poor fit].
`CC(=O)Nc1ccc(C(=O)/C=C/c2ccco2)cc1` was tested, and the Potency was inconclusive: 35.5 µM [inhibitor, partial curve, poor fit].
For `CCCN(CCC)CCNC(=O)C1CCCN(S(=O)(=O)c2cccc3nsnc23)C1` (centres undefined), the activity change, negative = inhibition was inconclusive: -30.2% [inhibitor].
For `CCC(C)n1c(=S)[nH]c2c(sc3ccc([N+](=O)[O-])cc32)c1=O` (centres undefined), the Potency was inconclusive: 25.1 µM [inhibitor, partial curve, poor fit].
With `CC(=O)c1ccc(S(=O)(=O)N(Cc2cc3cc4c(cc3[nH]c2=O)OCCO4)CC2CCCO2)cc1` (centres undefined) the Potency was “inactive”.
`CC1CCCN(C2=C(NS(=O)(=O)c3ccc(Br)cc3)C(=O)c3ccccc3C2=O)C1` (centres undefined) was tested, and the Potency was inconclusive: 35.5 µM [inhibitor, partial curve].
With `COc1ccc(C(=O)N2CCOC3(CCN(C(=O)C4CCN(C)CC4)CC3)C2)cc1` the activity change, negative = inhibition was inactive: 3.65% [at 6.33 µM].
In the case of `Cc1cccc(C#Cc2ccccc2)n1`, the Potency is reported as inconclusive: 25.1 µM [inhibitor, partial curve, poor fit] and inconclusive: 31.6 µM [inhibitor, partial curve, poor fit] and inconclusive: 28.2 µM [inhibitor, partial curve, poor fit].
